According to patent US8481494B2, “Compounds for the treatment of diseases related to protein misfolding” (priority 2009, dated 2013):
Part of at least one peptide drawing is inferred or uncertain, most often the ends. *1 amine or outer side, *2 acyl side, *3 side chain or, on linkers, in order; H or OH if unused. Where a SMILES comes first, the peptide text is derived from it. [ ]: non-standard residue; d: D form. The star is where a group is joined. X1 = O=C(c1cc([N+](=O)[O-])n[nH]1)*; X2 = O=C(c1cc(N[*:1])n[nH]1)[*:2]

Amino acid sequences for entries named in this document (tags omitted). Residues count along the entry.
UniProt P05067, 672-713 limits assumed: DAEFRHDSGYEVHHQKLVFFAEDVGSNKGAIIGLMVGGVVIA

Target: T1, Aβ(1-42) (Homo sapiens, UniProt P05067)
T1 construct: Aβ(1-42)-peptide (Bachem, Bubendorf, Germany) was prepared in HFIP; purchased Bachem, Bubendorf
Test: ThT equilibrium inhibition assay of Aβ aggregation
Type: biochemical
Settings: in words
Protocol: After 72 h, the aggregation process has reached a maximum in the absence or presence of any trimeric ligand, even for the slow Aβ (1-40) peptide. The respective equilibrium concentration is then indicated by the relative fluorescence intensity reached at the end point. The full series of new aminopyrazole trimer derivatives was subjected to ThT inhibition experiments and the final equilibrium was analyzed by comparison of the respective fluorescence intensities of intercalated dye at 482 nm (exc. at 442 nm). […] Their proposed mechanism of action is discussed within the next chapters together with all the other biophysical, biochemical as well as modeling data.
Thioflavin T (ThT) measurements were carried out in a 384-well plate (Nunc GmbH, Wiesbaden, Germany) in an InfiniTe 200 plate reader (Tecan GmbH, Crailsheim, Germany). Fluorescence intensity was measured at 37° C., 446 nm excitation wavelength (bandwidth 9 nm) and 490 nm emission wavelength with a bandwidth of 20 nm. Each data point was averaged over 40 lamp flashes. […] Each test compound was measured separately, both in 10 mM PBS and 10 mM PBS with ThT to exclude any potential interactions between ligand and ThT.
The ThT assay solution was briefly centrifugated and it was pipetted in a 384-well plate. The ThT fluorescence was measured at λEx=446 nm and λEm=490 nm. […]

## NCCCC[C@H](NC(=O)c1cc(NC(=O)c2cc(NC(=O)c3cc([N+](=O)[O-])n[nH]3)n[nH]2)n[nH]1)C(=O)N[C@@H](CCCCN)C(=O)N[C@@H](CCCCN)C(=O)N[C@@H](CCCCN)C(=O)N[C@@H](CCCCN)C(=O)NCC(=O)O [Trimer-KKKKKG-OH, 3-(3-(3-nitro-1H-pyrazole-5-carboxamido)-1H-pyrazole-5-carboxamido)-1H-pyrazole-5-carboxamido-(S)-lysinyl-(S)-lysinyl-(S)-lysinyl-(S)-lysinyl-(S)-lysinyl-(S)-glycine] (X1-[X2][X2]KKKKKG-OH)
  ThT values compared with the original trimer: surpass the original trimer activity
